Source: the supplement of paper PMC6411743
± gives the standard deviation of the averaged measurements. Only a part is listed here, and it is no random draw.

Chains of the proteins cited; added tags and fusions are not shown. Lines headed by an entry give the natural chain unless they say otherwise; changes in a name come on top.
UniProt Q9Y519: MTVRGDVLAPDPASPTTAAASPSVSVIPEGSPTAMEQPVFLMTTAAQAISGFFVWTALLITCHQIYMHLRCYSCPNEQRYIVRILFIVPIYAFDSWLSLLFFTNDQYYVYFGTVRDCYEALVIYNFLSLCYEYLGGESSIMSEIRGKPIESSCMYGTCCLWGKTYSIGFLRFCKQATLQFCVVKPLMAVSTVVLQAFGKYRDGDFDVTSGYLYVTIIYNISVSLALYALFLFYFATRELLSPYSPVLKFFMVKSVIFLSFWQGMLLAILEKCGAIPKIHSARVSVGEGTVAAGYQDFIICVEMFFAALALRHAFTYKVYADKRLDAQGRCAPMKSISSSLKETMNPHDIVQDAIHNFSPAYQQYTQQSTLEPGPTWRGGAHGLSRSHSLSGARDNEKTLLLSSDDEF
UniProt Q9H6K4: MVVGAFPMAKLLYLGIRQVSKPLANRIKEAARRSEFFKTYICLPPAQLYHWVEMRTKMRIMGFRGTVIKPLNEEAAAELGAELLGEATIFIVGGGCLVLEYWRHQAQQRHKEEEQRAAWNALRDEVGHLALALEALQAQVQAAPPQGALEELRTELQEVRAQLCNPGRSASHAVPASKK
UniProt O95861: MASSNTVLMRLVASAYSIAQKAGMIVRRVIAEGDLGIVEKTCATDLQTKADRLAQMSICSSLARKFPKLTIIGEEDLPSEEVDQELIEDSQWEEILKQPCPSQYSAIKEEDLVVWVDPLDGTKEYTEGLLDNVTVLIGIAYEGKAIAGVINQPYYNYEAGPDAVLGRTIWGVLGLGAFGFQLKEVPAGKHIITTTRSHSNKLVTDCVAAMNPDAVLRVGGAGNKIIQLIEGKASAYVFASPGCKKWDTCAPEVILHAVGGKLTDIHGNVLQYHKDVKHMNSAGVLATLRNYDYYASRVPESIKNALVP
UniProt Q9NYB9: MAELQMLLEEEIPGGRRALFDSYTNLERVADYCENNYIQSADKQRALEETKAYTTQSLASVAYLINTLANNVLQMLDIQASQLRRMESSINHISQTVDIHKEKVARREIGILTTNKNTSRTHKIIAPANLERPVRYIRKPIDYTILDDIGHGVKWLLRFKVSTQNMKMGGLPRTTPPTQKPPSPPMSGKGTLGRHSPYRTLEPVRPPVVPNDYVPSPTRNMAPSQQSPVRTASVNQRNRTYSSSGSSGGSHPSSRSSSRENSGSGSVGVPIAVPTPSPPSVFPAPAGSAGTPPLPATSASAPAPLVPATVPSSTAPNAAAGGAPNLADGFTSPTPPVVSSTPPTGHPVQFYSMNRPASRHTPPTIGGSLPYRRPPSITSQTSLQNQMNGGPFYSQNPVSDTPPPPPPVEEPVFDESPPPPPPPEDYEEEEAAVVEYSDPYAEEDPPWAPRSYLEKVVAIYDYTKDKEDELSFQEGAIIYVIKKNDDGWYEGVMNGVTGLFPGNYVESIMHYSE
UniProt Q99439: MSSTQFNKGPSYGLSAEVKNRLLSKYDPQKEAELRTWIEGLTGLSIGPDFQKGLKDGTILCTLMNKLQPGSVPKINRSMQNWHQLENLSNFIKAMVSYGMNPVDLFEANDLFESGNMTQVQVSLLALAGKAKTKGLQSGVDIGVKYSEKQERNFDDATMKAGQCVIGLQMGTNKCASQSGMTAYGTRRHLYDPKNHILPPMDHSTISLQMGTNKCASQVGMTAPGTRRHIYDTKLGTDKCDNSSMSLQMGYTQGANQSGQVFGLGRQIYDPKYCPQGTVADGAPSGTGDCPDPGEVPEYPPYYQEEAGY
UniProt O43768: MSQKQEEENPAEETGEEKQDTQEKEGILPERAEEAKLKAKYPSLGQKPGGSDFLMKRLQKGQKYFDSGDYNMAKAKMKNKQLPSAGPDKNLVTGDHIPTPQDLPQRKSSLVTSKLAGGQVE
UniProt Q86WP2: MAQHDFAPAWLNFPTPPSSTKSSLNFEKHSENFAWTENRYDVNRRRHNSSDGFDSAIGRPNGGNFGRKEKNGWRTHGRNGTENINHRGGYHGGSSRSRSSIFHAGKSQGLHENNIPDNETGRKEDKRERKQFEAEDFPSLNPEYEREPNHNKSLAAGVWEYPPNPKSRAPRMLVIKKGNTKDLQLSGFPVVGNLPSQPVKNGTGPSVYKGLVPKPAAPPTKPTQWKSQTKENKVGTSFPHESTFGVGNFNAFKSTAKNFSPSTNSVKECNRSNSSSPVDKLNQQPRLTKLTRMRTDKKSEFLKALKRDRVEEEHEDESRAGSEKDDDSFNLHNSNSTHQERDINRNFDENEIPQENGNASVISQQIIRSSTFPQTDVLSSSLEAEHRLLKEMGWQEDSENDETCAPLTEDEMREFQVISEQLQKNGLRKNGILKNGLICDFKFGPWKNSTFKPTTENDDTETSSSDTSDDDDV
UniProt P09884: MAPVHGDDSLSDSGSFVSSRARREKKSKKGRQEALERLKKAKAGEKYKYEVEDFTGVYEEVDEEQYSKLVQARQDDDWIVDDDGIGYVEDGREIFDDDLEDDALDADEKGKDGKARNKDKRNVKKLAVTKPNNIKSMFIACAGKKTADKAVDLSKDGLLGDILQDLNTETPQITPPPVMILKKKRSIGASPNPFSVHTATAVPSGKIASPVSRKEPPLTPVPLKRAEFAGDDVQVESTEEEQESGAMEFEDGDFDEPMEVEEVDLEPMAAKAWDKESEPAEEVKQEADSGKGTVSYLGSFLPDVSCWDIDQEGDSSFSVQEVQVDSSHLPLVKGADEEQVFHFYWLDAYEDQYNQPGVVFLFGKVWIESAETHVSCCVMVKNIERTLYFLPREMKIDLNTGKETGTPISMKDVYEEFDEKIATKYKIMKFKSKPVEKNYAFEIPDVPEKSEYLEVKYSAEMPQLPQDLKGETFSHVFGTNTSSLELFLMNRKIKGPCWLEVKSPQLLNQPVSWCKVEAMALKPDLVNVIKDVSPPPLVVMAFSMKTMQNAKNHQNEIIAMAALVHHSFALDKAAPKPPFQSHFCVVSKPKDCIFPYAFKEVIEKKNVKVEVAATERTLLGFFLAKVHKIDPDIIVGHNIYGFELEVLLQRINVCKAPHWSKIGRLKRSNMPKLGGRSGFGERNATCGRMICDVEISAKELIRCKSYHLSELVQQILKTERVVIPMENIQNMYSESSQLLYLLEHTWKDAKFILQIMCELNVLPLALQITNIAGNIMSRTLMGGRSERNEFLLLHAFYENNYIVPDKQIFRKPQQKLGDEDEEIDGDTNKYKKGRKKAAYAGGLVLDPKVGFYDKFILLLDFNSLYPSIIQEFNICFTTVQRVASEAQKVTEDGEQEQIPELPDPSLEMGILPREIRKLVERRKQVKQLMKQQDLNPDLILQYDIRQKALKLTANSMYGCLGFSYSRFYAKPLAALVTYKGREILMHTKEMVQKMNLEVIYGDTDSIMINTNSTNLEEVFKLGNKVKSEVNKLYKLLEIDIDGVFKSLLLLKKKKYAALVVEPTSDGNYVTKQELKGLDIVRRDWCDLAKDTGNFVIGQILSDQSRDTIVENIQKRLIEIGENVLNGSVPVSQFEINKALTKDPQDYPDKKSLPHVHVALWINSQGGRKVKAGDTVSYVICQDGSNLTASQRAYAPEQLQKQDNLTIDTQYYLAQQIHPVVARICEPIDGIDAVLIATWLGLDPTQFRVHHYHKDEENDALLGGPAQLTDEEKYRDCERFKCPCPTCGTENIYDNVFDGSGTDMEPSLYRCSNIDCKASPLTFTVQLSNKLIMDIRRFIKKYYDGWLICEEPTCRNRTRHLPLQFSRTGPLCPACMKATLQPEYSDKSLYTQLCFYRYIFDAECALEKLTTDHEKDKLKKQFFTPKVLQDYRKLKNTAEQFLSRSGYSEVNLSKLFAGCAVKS
UniProt P25440, whole entry, looked up: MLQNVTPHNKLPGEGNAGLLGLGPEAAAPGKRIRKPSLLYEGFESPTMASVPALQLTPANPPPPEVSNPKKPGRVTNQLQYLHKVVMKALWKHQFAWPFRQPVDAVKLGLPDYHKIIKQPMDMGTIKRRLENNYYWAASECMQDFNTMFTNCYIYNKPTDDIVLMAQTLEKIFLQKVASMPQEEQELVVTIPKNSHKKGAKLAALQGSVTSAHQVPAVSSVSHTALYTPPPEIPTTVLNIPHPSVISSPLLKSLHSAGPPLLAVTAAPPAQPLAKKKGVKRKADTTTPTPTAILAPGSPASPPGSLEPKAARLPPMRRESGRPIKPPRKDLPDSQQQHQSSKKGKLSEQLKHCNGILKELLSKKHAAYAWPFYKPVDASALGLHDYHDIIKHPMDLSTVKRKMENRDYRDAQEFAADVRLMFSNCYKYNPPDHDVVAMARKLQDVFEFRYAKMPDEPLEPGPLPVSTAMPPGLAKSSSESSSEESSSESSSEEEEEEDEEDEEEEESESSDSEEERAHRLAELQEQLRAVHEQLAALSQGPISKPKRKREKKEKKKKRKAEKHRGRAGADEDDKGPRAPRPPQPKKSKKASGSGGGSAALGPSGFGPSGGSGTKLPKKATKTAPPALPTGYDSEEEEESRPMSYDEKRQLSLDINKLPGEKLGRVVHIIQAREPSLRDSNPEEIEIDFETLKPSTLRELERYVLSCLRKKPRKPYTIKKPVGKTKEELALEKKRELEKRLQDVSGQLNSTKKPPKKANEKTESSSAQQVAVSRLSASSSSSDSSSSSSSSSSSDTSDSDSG
UniProt P11234: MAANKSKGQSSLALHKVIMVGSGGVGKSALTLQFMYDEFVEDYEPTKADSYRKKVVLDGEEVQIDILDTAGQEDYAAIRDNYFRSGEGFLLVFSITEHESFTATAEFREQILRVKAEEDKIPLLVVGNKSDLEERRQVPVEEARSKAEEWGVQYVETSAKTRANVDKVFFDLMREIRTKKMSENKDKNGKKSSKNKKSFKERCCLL
UniProt Q70CQ3: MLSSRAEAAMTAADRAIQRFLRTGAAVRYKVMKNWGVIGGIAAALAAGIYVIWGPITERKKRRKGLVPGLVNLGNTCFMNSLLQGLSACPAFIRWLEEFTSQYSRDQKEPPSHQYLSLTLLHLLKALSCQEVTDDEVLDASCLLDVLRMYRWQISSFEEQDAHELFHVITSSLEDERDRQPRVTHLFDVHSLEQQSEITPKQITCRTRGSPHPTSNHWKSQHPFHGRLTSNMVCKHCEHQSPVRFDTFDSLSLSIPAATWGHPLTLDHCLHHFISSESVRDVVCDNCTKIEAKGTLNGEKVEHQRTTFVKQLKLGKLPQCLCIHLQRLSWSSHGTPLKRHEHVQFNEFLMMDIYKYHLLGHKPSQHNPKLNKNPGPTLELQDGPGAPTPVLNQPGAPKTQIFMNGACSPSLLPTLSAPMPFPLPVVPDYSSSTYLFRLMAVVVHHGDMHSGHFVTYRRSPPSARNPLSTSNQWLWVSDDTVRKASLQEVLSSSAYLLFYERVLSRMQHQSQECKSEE
UniProt A2RUC4: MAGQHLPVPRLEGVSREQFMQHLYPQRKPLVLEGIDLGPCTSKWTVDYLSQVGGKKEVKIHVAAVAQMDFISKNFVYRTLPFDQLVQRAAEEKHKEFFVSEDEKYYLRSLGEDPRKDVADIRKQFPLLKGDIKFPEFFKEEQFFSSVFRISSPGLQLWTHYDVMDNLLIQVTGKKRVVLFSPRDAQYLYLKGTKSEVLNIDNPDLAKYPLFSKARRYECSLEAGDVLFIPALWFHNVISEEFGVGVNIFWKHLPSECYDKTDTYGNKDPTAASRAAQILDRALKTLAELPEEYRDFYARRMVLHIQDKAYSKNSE
UniProt Q02833: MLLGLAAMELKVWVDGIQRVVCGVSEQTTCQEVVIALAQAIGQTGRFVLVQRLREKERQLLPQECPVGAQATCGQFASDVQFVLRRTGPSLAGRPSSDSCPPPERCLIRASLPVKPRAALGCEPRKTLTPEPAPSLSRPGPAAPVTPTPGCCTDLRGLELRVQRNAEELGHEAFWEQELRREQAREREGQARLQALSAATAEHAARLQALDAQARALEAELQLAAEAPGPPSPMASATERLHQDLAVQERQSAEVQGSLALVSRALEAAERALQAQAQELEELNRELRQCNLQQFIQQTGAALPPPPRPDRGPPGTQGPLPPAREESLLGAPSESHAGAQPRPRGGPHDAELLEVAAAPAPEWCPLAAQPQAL
UniProt Q7Z4G1, whole entry: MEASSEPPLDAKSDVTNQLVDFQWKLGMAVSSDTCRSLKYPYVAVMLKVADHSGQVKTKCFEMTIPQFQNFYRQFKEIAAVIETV
UniProt Q14728: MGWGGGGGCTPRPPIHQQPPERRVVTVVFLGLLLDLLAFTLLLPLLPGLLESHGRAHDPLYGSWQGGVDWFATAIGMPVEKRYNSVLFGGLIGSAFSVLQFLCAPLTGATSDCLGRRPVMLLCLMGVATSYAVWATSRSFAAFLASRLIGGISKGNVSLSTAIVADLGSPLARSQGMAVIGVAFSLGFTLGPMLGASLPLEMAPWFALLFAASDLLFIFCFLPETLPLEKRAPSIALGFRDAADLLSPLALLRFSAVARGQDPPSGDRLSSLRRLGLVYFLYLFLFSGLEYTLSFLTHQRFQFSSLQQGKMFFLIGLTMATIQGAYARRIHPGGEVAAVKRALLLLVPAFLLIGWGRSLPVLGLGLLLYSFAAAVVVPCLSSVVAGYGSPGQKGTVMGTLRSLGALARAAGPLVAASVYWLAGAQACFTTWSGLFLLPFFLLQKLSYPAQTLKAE

Compound: Nc1ncnc2c1ncn2[C@@H]1O[C@H](COP(=O)(O)OP(=O)(O)OP(=O)(O)O)[C@@H](O)[C@H]1O [adenosine triphosphate]
Assay: NP40-soluble protein abundance relative to vehicle (solubility fold change) (ratio); higher = more soluble protein in presence of ATP
Method in brief: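 Data come from three independent experiments in which Dounce-homogenised Jurkat crude lysate was treated at eight concentrations from 0.1 to 10 mM. Treatment ran 10 min at room temperature and then 3 min at 37 °C, after which 0.8% NP40 and benzonase were added for 60 min at 4 °C before ultracentrifugation. The supernatant underwent TMT labelling and LC-MS/MS, and vsn-normalised intensities were expressed as fold change against the detergent-processed vehicle in each replicate.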

Target	NP40-soluble protein abundance (concentration: 1mM)	NP40-soluble protein abundance (concentration: 2mM)	NP40-soluble protein abundance (concentration: 4mM)	NP40-soluble protein abundance (concentration: 6mM)	NP40-soluble protein abundance (concentration: 8mM)	NP40-soluble protein abundance (concentration: 10mM)
A0A0J9YYJ3|Q9Y519 (UniProt Q9Y519)	0.892 ± 0.12	0.897 ± 0.05	0.903 ± 0.1	0.945 ± 0.14	0.956 ± 0.038	0.894 ± 0.049
RCCD1 (UniProt A6NED2)	0.996 ± 0.022	1.02 ± 0.011	1.04 ± 0.034	1.07 ± 0.063	0.9551 ± 0.002	1.01 ± 0.051
B4DK77 and related entries (UniProt Q9H6K4)	1.07 ± 0.15	0.9506 ± 0.0033	1.14 ± 0.078	0.9515 ± 0.0055	1.04 ± 0.15	0.936 ± 0.11
LIPT2 (UniProt A6NK58)	0.855 ± 0.03	0.938 ± 0.018	0.903 ± 0.092	0.878 ± 0.07	0.858 ± 0.085	0.891 ± 0.073
A0A0U1RQT7|A0A0U1RQY7|Q8IXA3 and related entries (UniProt Q9HCP0)	1.11 ± 0.14	1.06 ± 0.031	1.09 ± 0.04	1.13 ± 0.098	1.16 ± 0.1	1.1 ± 0.072
A6NF51 and related entries (UniProt O95861)	0.925 ± 0.043	0.948 ± 0.0097	0.9148 ± 0.0054	0.887 ± 0.045	0.891 ± 0.019	0.923 ± 0.017
B7Z836 and related entries (UniProt Q9NYB9)	0.877 ± 0.099	0.866 ± 0.055	0.861 ± 0.071	0.892 ± 0.078	0.812 ± 0.049	0.812 ± 0.072
B4DDF4 and related entries (UniProt Q99439)	0.927 ± 0.076	0.948 ± 0.048	0.902 ± 0.029	0.982 ± 0.044	0.894 ± 0.011	0.884 ± 0.034
A0A0J9YXJ0|E9PC62 and related entries (UniProt O95319)	0.973 ± 0.055	0.981 ± 0.011	0.9516 ± 0.006	0.976 ± 0.031	0.931 ± 0.022	0.935 ± 0.02
A6NMQ3 and related entries (UniProt O43768)	0.771 ± 0.098	0.746 ± 0.03	0.75 ± 0.11	0.811 ± 0.016	0.667 ± 0.04	0.725 ± 0.1
D4PHA4 and related entries (UniProt Q86WP2)	0.983 ± 0.19	1.13 ± 0.1	1.07 ± 0.056	1.09 ± 0.11	1.15 ± 0.12	1.11 ± 0.077
A6NMQ1 and related entries (UniProt P09884)	0.991 ± 0.061	1.01 ± 0.043	0.964 ± 0.03	0.965 ± 0.023	1 ± 0.018	0.966 ± 0.028
A0A0G2JK44|P25440 and related entries (UniProt P25440)	0.937 ± 0.048	0.994 ± 0.049	1.03 ± 0.064	1.09 ± 0.059	1.09 ± 0.049	1.14 ± 0.025
C9J406 and related entries (UniProt Q16891)	0.993 ± 0.051	0.942 ± 0.032	0.906 ± 0.04	0.974 ± 0.13	0.916 ± 0.053	0.901 ± 0.041
C9J6B1 and related entries (UniProt P11234)	1.01 ± 0.058	0.982 ± 0.018	0.992 ± 0.073	1.02 ± 0.067	0.947 ± 0.066	0.985 ± 0.021
B3KUS5 and related entries (UniProt Q70CQ3)	1 ± 0.035	1.05 ± 0.12	1.05 ± 0.12	0.994 ± 0.12	1.22 ± 0.027	1.14 ± 0.1
B7WPE2 and related entries (UniProt Q32P44)	1.114 ± 0.0064	1.1 ± 0.016	1.1 ± 0.033	1.08 ± 0.054	1.11 ± 0.043	1.1 ± 0.023
C9J4Z3 and related entries (UniProt P61513)	0.958 ± 0.047	0.982 ± 0.098	0.979 ± 0.083	0.918 ± 0.14	0.901 ± 0.13	0.986 ± 0.084
B1ALH6 and related entries (UniProt O14832)	0.928 ± 0.034	0.943 ± 0.016	0.93 ± 0.069	0.949 ± 0.02	0.895 ± 0.078	0.947 ± 0.046
A0A0G2JHC2|Q6NYC8 (UniProt Q6NYC8)	0.942 ± 0.058	0.94 ± 0.032	0.979 ± 0.022	1.02 ± 0.037	0.993 ± 0.015	1 ± 0.019
UniProt A2RUC4 and related entries	1.03 ± 0.063	0.987 ± 0.055	1.01 ± 0.12	1.04 ± 0.13	1.03 ± 0.15	1.06 ± 0.034
A0A0G2JLR5|A0A0G2JMW4|Q02833 and related entries (UniProt Q02833)	1 ± 0.013	0.963 ± 0.059	0.924 ± 0.025	0.97 ± 0.062	0.898 ± 0.021	0.847 ± 0.067
B7Z2R7 and related entries (UniProt Q5T8D3)	0.965 ± 0.042	1.01 ± 0.026	0.9823 ± 0.0063	1.03 ± 0.023	0.967 ± 0.018	0.983 ± 0.0094
B0QZ40 and related entries (UniProt Q7Z4G1)	0.903 ± 0.051	0.879 ± 0.017	0.866 ± 0.031	0.924 ± 0.12	0.929 ± 0.079	0.8036 ± 0.0037
D6RA71 and related entries (UniProt P78317)	0.896 ± 0.14	0.966 ± 0.062	0.944 ± 0.089	0.948 ± 0.061	0.918 ± 0.081	0.904 ± 0.075
B0QY95 and related entries (UniProt Q9NQG6+B0QY95)	0.919 ± 0.038	0.95 ± 0.054	0.979 ± 0.09	0.952 ± 0.086	0.9476 ± 0.0088	0.97 ± 0.05
D6RE79 and related entries (UniProt Q14728)	0.971 ± 0.095	1 ± 0.075	0.991 ± 0.051	0.935 ± 0.11	1.05 ± 0.024	1.05 ± 0.12
B0QZ65 and related entries (UniProt Q14C86)	0.97 ± 0.01	0.98 ± 0.03	0.9584 ± 0.0054	0.924 ± 0.036	0.969 ± 0.025	0.965 ± 0.029
A0A0G2JNU3|A6H8Y1 and related entries (UniProt A6H8Y1)	0.983 ± 0.14	1.12 ± 0.05	0.948 ± 0.072	0.976 ± 0.017	0.985 ± 0.093	0.987 ± 0.12
C9JRZ6 and related entries (UniProt Q9NX63)	0.994 ± 0.061	0.94 ± 0.038	0.901 ± 0.063	0.957 ± 0.14	0.908 ± 0.07	0.893 ± 0.029

No new results follow: an excerpt of the list.
Target	NP40-soluble protein abundance (concentration: 1mM)	NP40-soluble protein abundance (concentration: 2mM)	NP40-soluble protein abundance (concentration: 4mM)	NP40-soluble protein abundance (concentration: 6mM)	NP40-soluble protein abundance (concentration: 8mM)	NP40-soluble protein abundance (concentration: 10mM)
A0A0G2JLR5|A0A0G2JMW4|Q02833 and related entries (UniProt Q02833)	1 ± 0.013	0.963 ± 0.059	0.924 ± 0.025	0.97 ± 0.062	0.898 ± 0.021	0.847 ± 0.067
B7Z2R7 and related entries (UniProt Q5T8D3)	0.965 ± 0.042	1.01 ± 0.026	0.9823 ± 0.0063	1.03 ± 0.023	0.967 ± 0.018	0.983 ± 0.0094
B0QZ40 and related entries (UniProt Q7Z4G1)	0.903 ± 0.051	0.879 ± 0.017	0.866 ± 0.031	0.924 ± 0.12	0.929 ± 0.079	0.8036 ± 0.0037
D6RA71 and related entries (UniProt P78317)	0.896 ± 0.14	0.966 ± 0.062	0.944 ± 0.089	0.948 ± 0.061	0.918 ± 0.081	0.904 ± 0.075
B0QY95 and related entries (UniProt Q9NQG6+B0QY95)	0.919 ± 0.038	0.95 ± 0.054	0.979 ± 0.09	0.952 ± 0.086	0.9476 ± 0.0088	0.97 ± 0.05
D6RE79 and related entries (UniProt Q14728)	0.971 ± 0.095	1 ± 0.075	0.991 ± 0.051	0.935 ± 0.11	1.05 ± 0.024	1.05 ± 0.12
